{"source": "patent EP0565674B1", "about": "“METHOD FOR MEMORY ENHANCEMENT AND QUALITY OF LIFE IMPROVEMENT” (CITY OF HOPE, priority 1991, dated 1993)", "key": {"[1]": {"conditions": "means of 4 to 5 brains, both sexes, cited from earlier work"}, "[2]": {"experiment": "Contents of steroids in regions of human brain (Lanthier et al.)"}}, "note": "Counter-ions that a name gives are not always drawn. Like-named read-outs stand apart in the source and are kept apart here."}
{"smiles": "C[C@]12CC[C@H](OS(=O)(=O)O)CC1=CC[C@@H]1[C@@H]2CC[C@]2(C)C(=O)CC[C@@H]12", "note": "[DHEAS, dehydroepiandrosterone sulfate]", "values": [{"measurement": "content in human brain", "setting": "[1]; Amygdala", "value": 483, "unit": "ng/100 gm"}, {"measurement": "content in human brain", "setting": "[1]; Frontal cortex", "value": 483, "unit": "ng/100 gm"}, {"measurement": "content in human brain", "setting": "[1]; Hippocampus", "value": 459, "unit": "ng/100 gm"}, {"measurement": "content in human brain", "setting": "[1]; Hypothalamus", "value": 364, "unit": "ng/100 gm"}, {"measurement": "content in human brain", "setting": "[1]; Parietal cortex", "value": 264, "unit": "ng/100 gm"}, {"measurement": "content in human brain", "setting": "[1]; Temporal cortex", "value": 305, "unit": "ng/100 gm"}, {"measurement": "ratio to pregnenolone", "setting": "[2]; Amygdala", "value": 0.15}, {"measurement": "ratio to pregnenolone", "setting": "[2]; Frontal cortex", "value": 0.12}, {"measurement": "ratio to pregnenolone", "setting": "[2]; Hippocampus", "value": 0.12}, {"measurement": "ratio to pregnenolone", "setting": "[2]; Hypothalamus", "value": 0.13}, {"measurement": "ratio to pregnenolone", "setting": "[2]; Parietal cortex", "value": 0.07}, {"measurement": "ratio to pregnenolone", "setting": "[2]; Temporal cortex", "value": 0.09}]}
{"smiles": "CC(=O)[C@H]1CC[C@H]2[C@@H]3CC=C4C[C@@H](O)CC[C@]4(C)[C@H]3CC[C@]12C", "note": "[pregnenolone, 5-pregnen-3β-ol-20-one]", "values": [{"measurement": "content in human brain", "setting": "[1]; Amygdala", "value": 3201, "unit": "ng/100 gm"}, {"measurement": "content in human brain", "setting": "[1]; Frontal cortex", "value": 4074, "unit": "ng/100 gm"}, {"measurement": "content in human brain", "setting": "[1]; Hippocampus", "value": 3749, "unit": "ng/100 gm"}, {"measurement": "content in human brain", "setting": "[1]; Hypothalamus", "value": 2786, "unit": "ng/100 gm"}, {"measurement": "content in human brain", "setting": "[1]; Parietal cortex", "value": 3620, "unit": "ng/100 gm"}, {"measurement": "content in human brain", "setting": "[1]; Temporal cortex", "value": 3485, "unit": "ng/100 gm"}]}
